Test results: publication PMC5983841
Results are given in words; binding and its absence hold for the method and conditions named. Binding seen in cells or lysates may run through a third protein. Some binding calls cover weakened binding; strength is not graded here.

The chains behind the UniProt entries cited, without tags or fusion partners. Residues count along the entry.
UniProt P70302, residues 23-685: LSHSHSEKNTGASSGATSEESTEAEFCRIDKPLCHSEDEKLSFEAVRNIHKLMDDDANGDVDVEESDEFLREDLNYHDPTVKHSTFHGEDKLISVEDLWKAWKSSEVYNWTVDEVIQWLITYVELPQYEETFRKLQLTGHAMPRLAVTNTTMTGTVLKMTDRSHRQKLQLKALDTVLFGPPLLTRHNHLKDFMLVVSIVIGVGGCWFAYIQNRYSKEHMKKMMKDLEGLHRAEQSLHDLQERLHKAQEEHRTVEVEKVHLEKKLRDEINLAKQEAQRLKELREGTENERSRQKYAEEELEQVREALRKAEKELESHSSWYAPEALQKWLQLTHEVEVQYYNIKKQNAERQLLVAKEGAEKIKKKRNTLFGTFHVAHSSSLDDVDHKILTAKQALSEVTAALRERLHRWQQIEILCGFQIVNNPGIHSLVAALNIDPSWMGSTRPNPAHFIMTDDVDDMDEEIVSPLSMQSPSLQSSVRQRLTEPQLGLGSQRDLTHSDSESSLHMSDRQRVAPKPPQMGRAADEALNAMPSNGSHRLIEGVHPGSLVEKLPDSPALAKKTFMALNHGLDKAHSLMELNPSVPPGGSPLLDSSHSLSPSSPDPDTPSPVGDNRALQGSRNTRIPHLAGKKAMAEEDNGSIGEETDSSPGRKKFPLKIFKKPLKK
UniProt P83093, residues 15-746: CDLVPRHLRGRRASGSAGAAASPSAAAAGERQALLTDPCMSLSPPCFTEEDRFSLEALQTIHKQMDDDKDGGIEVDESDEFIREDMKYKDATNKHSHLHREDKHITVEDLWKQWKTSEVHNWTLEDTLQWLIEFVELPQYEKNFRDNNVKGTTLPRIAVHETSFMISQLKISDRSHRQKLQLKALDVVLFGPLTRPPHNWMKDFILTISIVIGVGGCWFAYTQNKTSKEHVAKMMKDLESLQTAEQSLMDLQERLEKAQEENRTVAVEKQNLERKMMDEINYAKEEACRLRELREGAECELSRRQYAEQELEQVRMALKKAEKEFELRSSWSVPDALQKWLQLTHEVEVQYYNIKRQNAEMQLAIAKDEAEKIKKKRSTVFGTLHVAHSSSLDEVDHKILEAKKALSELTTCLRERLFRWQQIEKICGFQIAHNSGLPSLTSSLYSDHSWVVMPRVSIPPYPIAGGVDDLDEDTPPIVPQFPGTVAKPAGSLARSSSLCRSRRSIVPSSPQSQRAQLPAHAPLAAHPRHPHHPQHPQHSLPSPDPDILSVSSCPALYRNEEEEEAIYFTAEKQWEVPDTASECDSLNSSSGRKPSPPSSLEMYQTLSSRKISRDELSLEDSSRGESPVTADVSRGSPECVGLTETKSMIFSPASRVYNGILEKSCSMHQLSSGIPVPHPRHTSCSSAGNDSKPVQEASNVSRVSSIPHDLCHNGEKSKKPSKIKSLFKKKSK
UniProt Q8BWG9: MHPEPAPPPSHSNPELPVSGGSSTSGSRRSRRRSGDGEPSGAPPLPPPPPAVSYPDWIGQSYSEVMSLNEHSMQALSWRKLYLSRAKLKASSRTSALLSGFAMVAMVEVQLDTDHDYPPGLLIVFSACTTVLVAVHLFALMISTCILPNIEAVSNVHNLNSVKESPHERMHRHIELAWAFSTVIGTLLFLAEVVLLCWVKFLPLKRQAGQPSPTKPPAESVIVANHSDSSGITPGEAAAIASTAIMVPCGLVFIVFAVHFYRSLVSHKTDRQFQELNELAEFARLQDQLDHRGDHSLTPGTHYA

Molecular target: stromal interaction molecule 1 (STIM1), endogenous in NIH 3T3 cells (mouse (endogenous in NIH 3T3)) (UniProt P70302)
Assay: co-IP; NIH 3T3 whole cell lysates in 1% CHAPS lysis buffer (50 mM Tris, 150 mM NaCl, 1 mM EDTA, pH 8.0); anti-STIM1 antibody 7 h at 4 °C, protein A-agarose 16 h at 4 °C; blots for STIM2 and Orai1; cells store-filled (control) or treated with 20 μM CPA for 6 min before lysis

| binding | Substance |
| --- | --- |
| binds | stromal interaction molecule 2 (STIM2), endogenous in NIH 3T3 cells (from UniProt P83093 15-746) |
| binds | Orai1, endogenous in NIH 3T3 cells (from UniProt Q8BWG9 1-304) |
